Laboratory results reported in paper PMC9983901.
These are yes or no findings as the source states them, for the method shown. In cells and extracts the contact can be indirect. A yes stands for co-enrichment or nearness to the bait. Other partners may have been found. For some of these results: No binding means not detected with the bait. Tags and fused reporters may be left off the sequences shown.

The chains behind the UniProt entries cited, without tags or fusion partners. Where a name states a change or a piece, a line headed by the entry shows the natural chain unless it says otherwise.
UniProt Q27497: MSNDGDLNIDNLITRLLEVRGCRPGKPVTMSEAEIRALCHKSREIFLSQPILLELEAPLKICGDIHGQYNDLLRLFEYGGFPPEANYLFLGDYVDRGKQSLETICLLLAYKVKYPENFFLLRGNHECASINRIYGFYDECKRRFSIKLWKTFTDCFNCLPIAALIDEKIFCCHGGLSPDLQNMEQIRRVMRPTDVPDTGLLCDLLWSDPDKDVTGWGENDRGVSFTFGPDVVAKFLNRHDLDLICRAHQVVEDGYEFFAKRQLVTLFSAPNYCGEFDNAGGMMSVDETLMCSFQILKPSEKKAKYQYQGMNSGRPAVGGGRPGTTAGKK
UniProt Q95PZ1: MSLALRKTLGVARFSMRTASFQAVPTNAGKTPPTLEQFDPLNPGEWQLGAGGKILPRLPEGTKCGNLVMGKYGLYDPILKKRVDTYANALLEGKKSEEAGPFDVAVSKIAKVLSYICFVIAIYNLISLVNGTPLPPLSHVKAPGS
UniProt P48727: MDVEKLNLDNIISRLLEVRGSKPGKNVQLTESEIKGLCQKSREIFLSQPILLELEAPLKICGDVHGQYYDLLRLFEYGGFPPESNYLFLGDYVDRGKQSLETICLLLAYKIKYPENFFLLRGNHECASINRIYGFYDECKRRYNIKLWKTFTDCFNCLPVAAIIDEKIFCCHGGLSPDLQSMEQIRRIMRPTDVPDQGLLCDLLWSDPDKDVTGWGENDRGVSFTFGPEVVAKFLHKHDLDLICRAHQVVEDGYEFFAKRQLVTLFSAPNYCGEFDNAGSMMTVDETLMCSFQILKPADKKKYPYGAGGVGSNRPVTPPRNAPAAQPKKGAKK

T1: GRAS-1::GFP (C. elegans) (UniProt Q93654)
T1 sequence: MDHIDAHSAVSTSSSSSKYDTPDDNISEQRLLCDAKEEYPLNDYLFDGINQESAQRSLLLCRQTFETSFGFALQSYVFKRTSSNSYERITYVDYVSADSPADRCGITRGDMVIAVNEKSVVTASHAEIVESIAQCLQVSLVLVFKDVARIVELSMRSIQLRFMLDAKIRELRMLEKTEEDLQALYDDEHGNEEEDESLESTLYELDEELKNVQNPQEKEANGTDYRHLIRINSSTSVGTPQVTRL

B1: GRP-1 (protein, UniProt P34512 1-393)
chain: MSSRYSERNGLSETEKMTLPKVRKRKAQLVDEIEALKNEVREVDEELDQVYYTHPKSKEYHKIVVNGRKKFNQDPWKALDWLASRNVVAKDPQALALWMKAGEGLSKSAIGEILGDNRPFALETLDRFTKEHKLHDVPIVPALRQYLFSFRLPGESQKINRILEKFAEVYANQNPSYGNADQAHTVAYSCIMVNTLLHNPNVKDKPSLEKYIEMNEQLLEKGAITIEQLTEVYESVSVTQFKIPDEVSTSGKGTVNDILLHAEREGWLFKQSSNPLFSGALSWKKRWFVLSENCLYYFDQMTDKEPKGIITLANVGIRKVEAPSRPFMFEIFSLSDGQIKACKTEQDGRLVEGRHSIYKICAVNDEDMRSWINAISRMMAPQQHLLARPKSTH
B2: separase (protein, UniProt G5ED39 1-1262)
chain: MKITNKSVDKQHIEKLDELRKNVSCTVIGFAEQTAELQQEISELFIAEFGVNGPIDMNSLSKLARITSYYASSEYFQGLAKYQRTACKMFITWQTLRKEAMECRSKDREIFASIPAKLCFFYFYNGELCRAVVCLLDYIDLSDDTLAKEAALRWLMFLGETELIEKKLKTWKMDKSSKDMFSATEFAMNYLKKSEYRVEMLEKLMKLRDKVKSDPTRSFSRYELASYVSWLCSTLSNVPVGSALRECEFPDRVSHIQEAALKSDSLVRNRIPGLASSQFDNSVNASIWPFLDGHQEDSNYYVHIGSTIAWHFEMRRECALVNVTTAQTRDSMSAMILNLRVALKSASFFRVLQTTNTLAYYSSIIEEAGSEKNAKLMRVSCVNLLSSNPIIVRCSTPKETGATSRAHTPMAGSSVSEKQNTMRPDLADLLGDLELLDEQSFHPITRSCVCNVCTIYPLHSSFAAEYMMSYAIHSDFSQLSIKHFNDEFARIRERGMSSQVLMHRDSSVRPRPNIIQNEIFGMCVIRWLTKKLDSKESADEDTMEIFNNALKIVRYLQQRTTDMILAVTQLGRQLEFPMECNYSWMRPTIRKPRVKATIDCAVDILRAVSPFGRRPKVEKLEKNLQPFDKERFEKVRLAMRNEMNHYGHILYREWRCRLFAYVGRTSRDPWEAAYAWAESTQIGARNAVQSRLEKCKRGLVTMSGHDRFKTCVQSMPDEMTLVQIAMADDKTIYLVKLHADRDPIIMPLAHYSQAVELMDKFTFLLDEDEMIAKYPGDITPEEFWKRRKIVDGRMMTFVDEVQKHFLGVAASLLMPSGQLGPKAAELAIKIHKLSKGGLLLGEAKEMVYQSKLMDAKSWEALILRFCEMRTTDEKFKSFLPLMHRNSVEVMNQDDSIVTEKKYTYLVICPHLSQFCWERLPIFDEYPYVGRQVSIHSTFSQLEAMKSQEKQIPLQIDVQNAYYILDPDNNLGETQKRMVEYINKFNWEGTVGSAPKSNEISAALSQRDAFFFIGHGSGSSVMPRSVLKQSTCNAISLLMGCGSVRTIPQALGFDGKTAILDYAMAKCPLIVGCLWTVTDGEIDRFLIRMIDDCFEDSKSLTGIDKLRQLSEAMHEARSKARLKYLTGAAVVMYGLPVVAKQTTPFVEKDQRNLPQTPKTSARTSMRMETVPKTPKQEFVTSKSVPMTPIFSNNENKSPSRARMPSRVLKTPRQVKTFQEEDDEAPKRSTTRQLKPLVAPPIPATPTTRTTRSSARTPSRSRNL
B3: LMN-1 (protein, UniProt Q21443 1-566)
chain: MSSRKGTRSSRIVTLERSANSSLSNNGGGDDSFGSTLLETSRLQEKDHLTSLNSRLATYIDKVRQLEQENNRLQVQIRDIEVVEKKEKSNLADRFEAEKARLRRALDSAQDELAKYRIEYDAAKVEVKKLKPQVEKLERELAGAEEQALHAQSIADQSQAKQKTLQARNDKLVVENDDLKKQNITLRDTVEGLKKAVEDETLLRTAANNKIKALEEDLAFALQQHKGELEEVRHKRQVDMTTYAKQINDEYQSKLQDQIEEMRAQFKNNLHQNKTAFEDAYKNKLNAARERQEEAVSEAIHLRARVRDLETSSSGNASLIERLRSELDTLKRSFQEKLDDKDARIAELNQEIERMMSEFHDLLDVKIQLDAELKTYQALLEGEEERLNLTQEAPQNTSVHHVSFSSGGASAQRGVKRRRVVDVNGEDQDIDYLNRRSKLNKETVGPVGIDEVDEEGKWVRVANNSEEEQSIGGYKLVVKAGNKEASFQFSSRMKLAPHASATVWSADAGAVHHPPEVYVMKKQQWPIGDNPSARLEDSEGDTVSSITVEFSESSDPSDPADRCSIM
B4: IMA-3 (protein, UniProt Q19969 1-514)
chain: MSSNRQAYYKNNAKEQIGKEKRNEEVVSIRKDKREEAISKRRNINTQIEDDSETSTTPPGPFDANLLRLTVAAAQSSDPAEQLTAVQQARKMLSTDRNPPIDDLIGSGILPVLVQCLSSTDPNLQFEAAWALTNIASGTSEQTQAVVNAGAVPLFLQLLSCGNLNVCEQSVWALGNIIGDGPHFRDYCLELGILQPLLQFINPEIPIGFLRNVTWVIVNLCRCKDPAPSPAVVRTILPALSLLIHHQDTNILIDTVWALSYLTDGGNEHIQMVIEAQVVTHLVPLLGHVDVKVQTAALRAVGNIVTGTDEQTQLVLDSGVLRFMPGLLAHYKEKINKEAVWFVSNITAGNQQQVQDVFDAGIMPMIIHLLDRGDFPTQKEAAWAISNVTISGRPNQVEQMVKLGVLRPFCAMLSCTDSQIIQVVLDGINNILKMAGEAAEQVTSEIEECGGLDKIENLQNHENEDIYKLAFEIIDNFFSSDDETGNVEGAQSSAFGGDVPPVPDAPNGGWNFGK
B5: α-importin nuclear transport IMA-2 protein (protein, UniProt P91276 1-531)
chain: MTLTETSLSHNAEEGKDEGGRLQQYKNLTKHEELRRRRTECSVEIRKQKGADMMMKRRNIVDVDEGGNSESELEEPEKISHQQSSTRLSNDEIRAILSNNPSEDDMVRCFESLRKSLSKTKNPPIDEVIHCGLLQALVQALSVENERVQYEAAWALTNIVSGSTEQTIAAVEAGVTIPLIHLSVHQSAQISEQALWAVANIAGDSSQLRDYVIKCHGVEALMHLMEKVDQLGDSHVRTIAWAFSNMCRHKNPHAPLEVLRVLSKGLVKLVQHTDRQVRQDACWAVSYLTDGPDEQIELARESGVLPHVVAFFKEAENLVAPALRTLGNVATGNDSLTQAVIDLGSLDEILPLMEKTRSSSIVKECCWLVSNIIAGTQKQIQAVLDANLLPVLINVLKSGDHKCQFEASWALSNLAQGGTNRQVVAMLEDNVVPALCQALLQTNTDMLNNTLETLYTLMLTVQNGYPHKVDILHDQVEENGGLDSLERLQESQSEQIYTQAYRIITQFFTDDDAGEKESHENADPQDNKWSF
B6: PLK-1 (protein, UniProt P34331 1-648)
chain: MNRLPNIAKPPQKSNQRKEKAPPEVPALIADKDRGTYYEKGRFLGKGGFAHCYELTNRATREVVAGKVVPKSMLVKQYQRDKMTQEVQIHRELGHINIVKLFNFFEDNLNVYITLELCARRSLMELHKRRKAVTEPEARYFTHQIVDGVLYLHDLNIIHRDMKLGNLFLNDDLVVKIGDFGLATTVNGDERKKTLCGTPNYIAPEVLNKAGHSFEVDIWAVGCILYILLFGQPPFESKSLEETYSRIRHNNYTIPSIATQPAASLIRKMLDPEPTRRPTAKQVQRDGFFKSGFMPTRLPVSCLTMVPKFGGHETSMMEENVAPRGVDARSQRPLNGRAGLSALPQHIVSNNADRERAQQQAAEATFREPEDAYLSQLFHQVAVLLEQRIPGLEEEEAALDGYQSPECLPVFWISKWVDYSDKYGIGYQLCDNSVGVLFNDNSRIMLDQAGNELTYIEKSNKEHYFSMHSGEMPGLLNKKVTLLKYFRSYMNDHLVKAGEGSEQRAGDDLARLPTLRVWFRTKSAIVLHLSNGTVQINFFNDHVKMMMCPLMQAVTFIDQNKRMLTYKLNNLQRNGCPEKFLHRLKYAKTMIERLMSDANVVSQNPARQPDMPRSMAAARSASAGSRGPNQAASHLPQSASGSNIHPRR

These molecules were tested against T1, GRAS-1::GFP (C. elegans) (assay: affinity purification with mass spectrometry; anti-GFP immunoprecipitation from homogenised 24h post-L4 worms expressing GRAS-1::GFP; four independent experiments against 4 controls; hits above 1.5-fold change).

binding | Molecule
binds | B1
binds | B2
binds | B3
binds | B4
binds | B5
binds | B6

Target: T1, GRAS-1::GFP (C. elegans)
Assay: as above
Remark: another data set of the same source

binding | Molecule
binds | NPP-13 (C. elegans (endogenous in whole worms))
no binding | FKB-6 (C. elegans (endogenous in whole worms))
binds | NPP-3 (C. elegans (endogenous in whole worms))
binds | GSP-1 (from UniProt Q27497 1-329)
binds | motor protein kinesin KLP-17 (C. elegans (endogenous in whole worms))
binds | KASH protein KDP-1 (from UniProt Q95PZ1)
binds | GSP-2 (from UniProt P48727 1-333)
